{
  "source": "paper PMC7515635",
  "about": "(2020)",
  "parents": {"B1": {"name": "HIS6-AtC53 [Arabidopsis thaliana] / GST-ATG8A [Arabidopsis thaliana] (parent complex)", "chain 1": "MPSQDDVQNLPIDITFSRLGEWLVDRKRIPADWRKRVAVIRVKILKEFSSLPKEIDPFFQTLDPEVIGYLEVKKVYEILLKTTPESRNIFGRLSGASGVWEAIVRAFEKDHIYLGEAAQIIIQNVNYEIPYLKKQVQKVQQQMTELDRKEADIKRSVALSATKYEDACRELGLQGNNVRRELLETASSLPSTFSKILEVINSDSVTGAMEYYSAYVQDVHTEKDKPLRIVLQNLKYIRENPPSLSVFGDSEGLDADNIQSSENANGTDAAADSIDWDITVETPEIDWDVSMVEEVDSGNDLGSYEIVNASDIPENSPFKVEESQGLEVDVSEISWDVSVETPQVEEIGDSALLESNQTQLTDSTTQVLGSGGERSQLLETEYRNKILDDLYEVKAFLNQRLIELRNEDTLSLQHHVQAVSPMVLQQYSPETIEPMVVDISMAISLLTNKKSRDLIMILNSKRFLDRLVSELEEKKHREVKLRESLKDVGRRRMELQNSLSAIWPKQEAALSKTRELKELCETSLSSMFDGRPVNIRGEINTLLNAGVSA", "chain 2": "MAKSSFKISNPLEARMSESSRIREKYPDRIPVIVEKAGQSDVPDIDKKKYLVPADLTVGQFVYVVRKRIKLGAEKAIFVFVKNTLPPTAALMSAIYEEHKDEDGFLYMTYSGENTFG"}},
  "data": [
    {"variants_of": "B1", "experiment": "SPR; 10 µM C53 premixed with buffer (0 nM AIM wt); GST-ATG8A captured at 500 RU, GST reference 300 RU; response read at end of injection (60 s); read off a plot", "units": {"response": "RU"}, "values": [
      {"variant": "chain 1 W276A, chain 1 W287A, chain 1 Y304A, chain 1 W335A", "response": "~35"}
    ]}
  ]
}
